Assay results: PubChem BioAssay AID2685 (National Center for Advancing Translational Sciences (NCATS), 2010)
The other results are listed elsewhere or left out. Shown are side measurements of this screen, not its main read-out; they come without a call. The list favours compounds with an active or inconclusive main result. Potencies come from curve fits of mixed quality, noted in brackets.

Assay: qHTS Assay for Lipid Storage Modulators in Drosophila S3 Cells;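 on cell number change: cells counted by Cell Tracker Red CMTPX staining in the red channel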
Conditions: BODIPY lipid droplet fluorescence, 18-24 h; for cell number change: measured here: cell count max response, cells fed with added oleic acid
Outline: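 Drosophila S3 cells got compounds at several concentrations plus oleic acid (400 uM solution). Laser-scanning cytometry with 488 nm excitation read lipid droplets at 500-530 nm and cells at 575-640 nm. Percent activity was relative to 20 uM Triacsin C.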

[1] = measured here: lipid fluorescence (Fed channel) AC50, cells fed with added oleic acid
[2] = measured here: cell number channel AC50, cells fed with added oleic acid

Row | SMILES | cell number change [%] | AC50 [1] | AC50 [2]
1 | COc1cccc(C(C(=O)NC(C)(C)C)N(Cc2ccc(C)cc2)C(=O)CCC(=O)Nc2cc(C)on2)c1OC (stereo not given) | 12.1 | 0.82 µM [rising, full curve] | –
2 | CCS(=O)(=O)c1ccc2oc(=O)c(/C=C(\O)c3ccc(Cl)cc3)nc2c1 | – | 6.51 µM [falling, single point] | –
3 | CN(C(=O)C1CCN(S(=O)(=O)c2cccs2)CC1)C1CCCCC1 | 5.58 | – | –
4 | c1ccc(-n2ncc3c2ncn2nc(-c4ccco4)nc32)cc1 | 0.295 | – | –
5 | O=C(NCCCN1CCOCC1)c1cc2c(s1)CCC2 | 12.4 | 0.103 µM [rising, full curve] | –
6 | O=c1c2cc(NC(=S)NC3CCN(Cc4ccccc4)CC3)ccc2nc2n1CCCCC2 | 42.5 | – | –
7 | O=C(CCCOc1ccccc1)N1CCN(C(=O)c2ccco2)CC1 | -1.64 | 16.4 µM [rising, partial curve] | –
8 | COc1ccc(OCC(=O)Nc2ccc(NC(=O)c3ccco3)c(C)c2)cc1 | 19 | 16.4 µM [rising, single point] | 0.146 µM [rising, full curve, poor fit]
9 | O=C(O)c1ccc(/C=N/Nc2nnnn2-c2ccccc2)cc1 | 24.4 | 11.6 µM [rising, single point] | 0.231 µM [rising, full curve, poor fit]
10 | CC1CC(C)(C)NC(=O)O1 (stereo not given) | -32.2 | 0.92 µM [falling, full curve, poor fit] | 16.4 µM [falling, single point]
11 | CC1CCN(C(=S)Nc2cccc(S(=O)(=O)N(C)C)c2)CC1 | – | 13 µM [rising, partial curve] | 0.731 µM [rising, single point]
12 | Cc1nc(N[C@@H](Cc2c[nH]c3ccccc23)C(=O)O)c2oc3ccccc3c2n1 | 2.36 | 1.84 µM [falling, partial curve] | 0.0058 µM [rising, full curve, poor fit]
13 | CCOC(=O)N1CCc2[nH]c3ccc(C)cc3c2C1 | -25.8 | 32.6 µM [falling, single point] | –
14 | CCc1ccccc1NC(=O)CSc1nc(-c2ccccc2)nn1C(=O)c1cccc([N+](=O)[O-])c1 | -31.4 | – | 1.16 µM [falling, partial curve]
15 | FC(F)Oc1ccc(NC(=S)NC2CCSc3ccccc32)cc1 (stereo not given) | 33 | 14.6 µM [rising, single point] | –
16 | COc1ccc(-n2c(SCC(=O)Nc3cc(C)on3)nc3ccc(O)cc3c2=O)cc1OC | – | 0.651 µM [falling, single point] | –
17 | CN(C)CCNC(=O)/C(=N\O)c1ccccn1 | -3.9 | 25.9 µM [falling, single point] | –
18 | O=C(/C=N/O)NCc1cccnc1 | -14.6 | – | –
19 | Fc1ccc(Nc2nc(N3CCOCC3)c3ccccc3n2)cc1 | -24 | 0.461 µM [rising, single point] | –

Shown as tab-separated lines: entries from further up.
Row	SMILES	cell number change [%]	AC50 [1]	AC50 [2]
13	CCOC(=O)N1CCc2[nH]c3ccc(C)cc3c2C1	-25.8	32.6 µM [falling, single point]	–
14	CCc1ccccc1NC(=O)CSc1nc(-c2ccccc2)nn1C(=O)c1cccc([N+](=O)[O-])c1	-31.4	–	1.16 µM [falling, partial curve]
15	FC(F)Oc1ccc(NC(=S)NC2CCSc3ccccc32)cc1 (stereo not given)	33	14.6 µM [rising, single point]	–
16	COc1ccc(-n2c(SCC(=O)Nc3cc(C)on3)nc3ccc(O)cc3c2=O)cc1OC	–	0.651 µM [falling, single point]	–
17	CN(C)CCNC(=O)/C(=N\O)c1ccccn1	-3.9	25.9 µM [falling, single point]	–
18	O=C(/C=N/O)NCc1cccnc1	-14.6	–	–
19	Fc1ccc(Nc2nc(N3CCOCC3)c3ccccc3n2)cc1	-24	0.461 µM [rising, single point]	–

The list goes on:

Row | SMILES | cell number change [%] | AC50 [1] | AC50 [2]
20 | COc1cc2c(cc1OC)C1O[C@](c3ccsc3)(C2)OC2=C1C(=O)CC(C)(C)C2 | 13.6 | – | –
21 | O=C(/C=C/c1ccc2c(c1)OCO2)Nc1c(C(=O)O)[nH]c2ccccc12 | 2.09 | 32.6 µM [rising, single point] | –
22 | CCc1cc2c(N3CCN(c4ccccc4)CC3)ncnc2s1 | 68.2 | 1.84 µM [rising, partial curve] | 11.6 µM [rising, partial curve]
23 | Nc1cc(=O)[nH]c(SCC(=O)N2CCN(S(=O)(=O)c3ccc4ccccc4c3)CC2)n1 | -9.29 | 0.13 µM [falling, full curve, poor fit] | –
24 | COCCN(CCOC)C(=S)Nc1ccccc1Cl | 2.69 | – | –
25 | CC(C)NC(=O)CCCC(=O)NC(C)C | -32 | 6.51 µM [falling, single point] | 5.8 µM [falling, full curve, poor fit]
26 | C=CCNS(=O)(=O)c1ccc(C(=O)OCc2cc(=O)oc3cc(OC)ccc23)cc1 | 10.9 | 29.1 µM [falling, single point] | –
27 | CCCN1C(=O)/C(=C/c2ccc(OCC(=O)OCC)cc2)NC1=S | -52.4 | 29.1 µM [falling, partial curve, poor fit] | 29.1 µM [falling, single point]
28 | O=C(CCn1c(=O)[nH]c2ccsc2c1=O)N(CCc1ccccc1)Cc1ccccc1 | – | 6.51 µM [falling, single point] | –
29 | O=C(O)c1ccc(N2Cc3ccccc3C2)cc1O | 57.4 | – | 18.4 µM [rising, partial curve, poor fit]
30 | CC(C)(C)C(=O)N1CCN(c2ccc(NC(=O)c3ccco3)cc2)CC1 | 3.85 | – | 7.31 µM [rising, single point]
31 | CCCC1=C(C(=O)OCC)C(c2ccncc2)n2ncnc2N1 (stereo not given) | -57 | 5.8 µM [rising, single point] | 29.1 µM [falling, single point]
32 | Cc1ccccc1C(=O)Nc1ccc(S(=O)(=O)N2CCCC2)cc1 | -22.9 | 0.206 µM [falling, full curve, poor fit] | –
33 | COc1ccccc1N1CCN(CC(=O)NCc2ccc(Cl)cc2)CC1 | -34.5 | – | 32.6 µM [falling, partial curve, poor fit]
34 | COc1ccc2c(c1)c1c(n2C(C)=O)C(OC(C)=O)=NCC1 | -126 | – | 29.1 µM [falling, partial curve]
35 | CC(C)c1ccc(NC(=O)c2snc3ccc(Cl)cc23)cc1 | -9.67 | 29.1 µM [falling, single point] | –
36 | CCc1cccc(C)c1NC(=O)CC1Oc2ccc(C)cc2NC1=O (stereo not given) | 4.56 | 2.91 µM [rising, single point] | –
37 | C/C(=N/OC(=O)c1ccc(C)cc1)c1cccs1 | 151 | 29.1 µM [rising, single point] | 29.1 µM [rising, partial curve]
38 | CCCN(c1ccccc1F)S(=O)(=O)c1c[nH]c(C(=O)OC)c1 | – | 4.11 µM [falling, single point] | –
